For this test, the target named is hexa-histidine tagged MazF6 (Toxin) (Mycobacterium tuberculosis) (UniProt P9WII3). Description: pull-down.

Chains of the proteins cited; added tags and fusions are not shown.
UniProt P9WII3: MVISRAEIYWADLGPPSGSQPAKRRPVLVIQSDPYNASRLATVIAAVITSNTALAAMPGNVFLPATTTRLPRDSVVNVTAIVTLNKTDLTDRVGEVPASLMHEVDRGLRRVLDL

These are yes or no findings as the source states them, for the method shown. In cells and extracts the contact can be indirect. Some entries that bind do so weakly or less than the wild type.

B1: MazE6 antitoxin (residue 1-82) (protein, UniProt P9WJ87 1-82)
chain: MKTAISLPDETFDRVSRRASELGMSRSEFFTKAAQRYLHELDAQLLTGQIDRALESIHGTDEAEALAVANAYRVLETMDDEW
With B1, the binding entry is on record as “binds”.

The values are drawn from PMC9477884.
